# Experimental data: US12448367B2, “Phthalazine derivatives as pyruvate kinase modulators” (Sitryx Therapeutics Limited, priority 2022, dated 2025)
# Amino acid sequences for entries named in this document (tags omitted). A change or cut given only in a name is not applied to a line headed by its entry. Residues count along the entry.
# UniProt P14618, whole entry: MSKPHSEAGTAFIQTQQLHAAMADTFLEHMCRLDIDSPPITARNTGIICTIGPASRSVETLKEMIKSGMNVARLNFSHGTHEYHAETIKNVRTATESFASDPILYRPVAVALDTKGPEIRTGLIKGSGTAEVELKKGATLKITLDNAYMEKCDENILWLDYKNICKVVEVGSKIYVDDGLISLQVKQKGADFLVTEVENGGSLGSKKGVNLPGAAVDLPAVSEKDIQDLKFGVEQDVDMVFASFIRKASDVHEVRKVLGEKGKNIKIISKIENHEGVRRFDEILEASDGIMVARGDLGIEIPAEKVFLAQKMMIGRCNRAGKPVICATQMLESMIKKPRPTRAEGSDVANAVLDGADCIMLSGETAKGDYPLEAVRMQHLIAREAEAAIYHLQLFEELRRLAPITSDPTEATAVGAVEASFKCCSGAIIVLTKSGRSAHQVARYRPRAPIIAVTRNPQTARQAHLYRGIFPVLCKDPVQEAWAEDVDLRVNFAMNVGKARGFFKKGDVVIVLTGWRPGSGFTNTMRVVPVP
# UniProt P14618, 2-531 limits assumed: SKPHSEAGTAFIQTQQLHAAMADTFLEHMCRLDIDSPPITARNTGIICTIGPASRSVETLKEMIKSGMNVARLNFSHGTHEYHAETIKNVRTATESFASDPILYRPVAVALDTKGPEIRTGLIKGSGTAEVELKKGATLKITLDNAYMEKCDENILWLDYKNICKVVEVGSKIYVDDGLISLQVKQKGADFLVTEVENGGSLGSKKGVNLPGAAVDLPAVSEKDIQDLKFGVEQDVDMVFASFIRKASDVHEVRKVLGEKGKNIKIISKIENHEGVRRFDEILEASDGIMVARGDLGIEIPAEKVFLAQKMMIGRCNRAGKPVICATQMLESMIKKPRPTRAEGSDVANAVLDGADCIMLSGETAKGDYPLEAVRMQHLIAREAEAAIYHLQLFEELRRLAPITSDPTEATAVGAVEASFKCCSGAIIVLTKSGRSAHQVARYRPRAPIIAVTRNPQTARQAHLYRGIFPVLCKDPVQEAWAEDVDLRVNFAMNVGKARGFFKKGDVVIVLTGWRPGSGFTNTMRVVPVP
# UniProt P30613: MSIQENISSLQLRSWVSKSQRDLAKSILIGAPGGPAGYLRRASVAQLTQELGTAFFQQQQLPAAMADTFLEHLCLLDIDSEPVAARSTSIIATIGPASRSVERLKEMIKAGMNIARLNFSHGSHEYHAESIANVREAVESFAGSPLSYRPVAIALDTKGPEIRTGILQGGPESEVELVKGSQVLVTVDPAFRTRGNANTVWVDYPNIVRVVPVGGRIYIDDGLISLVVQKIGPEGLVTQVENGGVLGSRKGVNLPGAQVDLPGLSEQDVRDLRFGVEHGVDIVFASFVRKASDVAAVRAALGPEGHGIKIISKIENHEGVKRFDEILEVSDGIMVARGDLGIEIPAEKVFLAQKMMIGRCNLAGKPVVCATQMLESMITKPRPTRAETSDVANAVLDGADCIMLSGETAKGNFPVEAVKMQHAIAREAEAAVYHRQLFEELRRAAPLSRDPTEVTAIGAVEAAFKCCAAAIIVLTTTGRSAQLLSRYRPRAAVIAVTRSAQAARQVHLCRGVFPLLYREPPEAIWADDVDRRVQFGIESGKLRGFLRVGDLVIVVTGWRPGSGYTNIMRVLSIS
# Some results were stated once for a whole list of compounds, not compound by compound.
# Tests used:
# [1] = target: T1, recombinant human PKM2 (Homo sapiens, UniProt P14618); assay: Human PKM2 activation assay (Kinase-Glo Plus luminescence, ATP generated); format: biochemical; conditions: lower EC50 and/or higher Emax values for PKM2 activation
# T1 construct: His (N); purchased R&D Systems
# Experimental: Measuring In Vitro Activation of Recombinant Human PKM2
# (§1) Compound activation of recombinant human PKM2 pyruvate kinase activity was determined by biochemical assay. N-terminal His-tagged hPKM2 was sourced from R&D Systems and its substrates phosphoenolpyruvate (PEP) and ADP from Sigma-Aldrich and 2Bscientific Ltd, respectively. The Kinase-Glo® Plus luminescence assay was from Promega. All other reagents were from Sigma-Aldrich. Test Compounds were prepared as 10 mM DMSO stocks and dilution series prepared in DMSO for direct dilution into Assay Buffer comprising 50 mM imidazole, 50 mM KCl, 7 mM MgCl2, 0.01% Tween20, 0.05% BSA (pH 7.2).
# Human PKM2 was diluted into Assay Buffer comprising 50 mM imidazole, 50 mM KCl, 7 mM MgCl2, 0.01% Tween20, 0.05% BSA (pH 7.2) to a final concentration of […]. Enzyme-Assay Buffer mix was dispensed into a 384-well shallow-well white-walled plate (PerkinElmer) and Test Compounds added by acoustic dispense (Echo®, Labcyte Inc.).
# (§2) After 60 minutes' incubation on an orbital shaker (300 rpm, 26° C.), enzyme activity was quantified by the luminescent detection of generated ATP. Kinase-Glo® Plus reagent was added to each well and the plates incubated for a further 15 minutes on an orbital shaker in the dark (300 rpm, 26° C.) before luminescence measurement on a plate reader (PHERAstar® FSX, BMG Labtech).
# (§3) Percentage activation was calculated by normalising […] signals to plate LOW (DMSO vehicle) and HIGH (5 μM TEPP-46) controls. EC50 and Emax values were determined from 4-parameter logistic fits of compound concentration-response curves.
# [2] = target: T2, recombinant human PKLR (Homo sapiens, UniProt P30613); assay: Human PKLR activation assay (Kinase-Glo Plus luminescence, ATP generated); format: biochemical; conditions: lower EC50 and/or higher Emax values for PKLR activation
# T2 construct: His (N); purchased R&D Systems
# Experimental: Biological Example 2—Human PKLR Activation Assay
# Measuring In Vitro Activation of Recombinant Human PKLR
# as §1, with “PKLR” for “PKM2”, “enzyme” for “hPKM2”
# Human PKLR was diluted into Assay Buffer to a final concentration of 5 μM. Enzyme-Assay Buffer mix was dispensed into 384-well shallow-well white-walled plates and Test Compounds added by acoustic dispense (Echo®, Labcyte Inc). Following 10 minutes' incubation at room temperature, the enzyme reaction was initiated by acoustic dispensing of ADP+PEP substrate to final concentrations of 254 μM ADP and 53 μM […].
# as §2, §3
# [3] = target: T3, pyruvate kinase in human CD4+ T cell lysates (Homo sapiens, UniProt P14618); assay: CD4+ T cell pyruvate kinase assay (PK activity in lysates of compound-treated cells); format: cell-based; conditions: by EC50 value in CD4+ T cell assay
# T3 construct: endogenous in cells; host or cells: primary human CD4+ T cells
# Experimental: Measuring Pyruvate Kinase (PK) Activity in Human CD4+ T Cell Lysates
# Compound activation of pyruvate kinase in human CD4+ T cell lysates was determined by biochemical assay. Primary CD4+ T cells were used rather than cancer cell lines to improve the disease relevance of the assay. The PK assay was sourced from Abcam. All other reagents were sourced from ThermoFisher. Test compounds were prepared as 10 mM DMSO stocks and dilution series prepared in DMSO for addition to intact CD4+ T cells cultured in RPMI media containing 10% FBS.
# Human CD4+ T cells were incubated with compound for 20 minutes and then washed twice in 1×PBS before resuspension in Abcam PK lysis buffer to prepare cell lysates. 10 μl PK assay Reaction Mix was added per well, including OXIRED™ PROBE. The plates were read using a BMG Labtech Pherastar plate reader at OD570 nm in kinetic mode for […] (25 cycles of 2 minutes) at 25° C., protecting from light.
# Plates were blank-subtracted and ΔAbsorbance calculated by subtracting the first plate read within the linear range from the plate read at the timepoint of interest. PK activity is expressed as ΔAbsorbance and plotted against log [Compound].
SMILES,PKM2-modulatory activity compared with mitapivat [1],PKLR-modulatory activity compared with mitapivat [2],pyruvate kinase activity compared with mitapivat [3]
"COc1ccc(Cn2ncc3cc(S(=O)(=O)c4cn[nH]c4)ccc3c2=O)nc1 [Example 1, 6-((1H-pyrazol-4-yl)sulfonyl)-2-((5-methoxypyridin-2-yl)methyl)phthalazin-1(2H)-one]",improved PKM2-modulatory activity compared with mitapivat,improved PKLR-modulatory activity compared with mitapivat,improved pyruvate kinase activity
"O=c1c2ccc(S(=O)(=O)c3cnn(C(F)F)c3)cc2cnn1Cc1cc[nH]n1 [Example 2, 2-((1H-pyrazol-3-yl)methyl)-6-((1-(difluoromethyl)-1H-pyrazol-4-yl)sulfonyl)phthalazin-1(2H)-one]",improved PKM2-modulatory activity compared with mitapivat,improved PKLR-modulatory activity compared with mitapivat,improved pyruvate kinase activity
"O=c1c2ccc(S(=O)(=O)c3cnn(CCO)c3)cc2cnn1Cc1ccc2c(n1)CCO2 [Example 3, 2-((2,3-dihydrofuro[3,2-b]pyridin-5-yl)methyl)-6-((1-(2-hydroxyethyl)-1H-pyrazol-4-yl)sulfonyl)phthalazin-1(2H)-one]",improved PKM2-modulatory activity compared with mitapivat,improved PKLR-modulatory activity compared with mitapivat,improved pyruvate kinase activity
"O=c1c2ccc(S(=O)(=O)c3cn[nH]c3)cc2cnn1Cc1cc2n(n1)CCO2 [Example 4, 6-((1H-pyrazol-4-yl)sulfonyl)-2-((2,3-dihydropyrazolo[5,1-b]oxazol-6-yl)methyl)phthalazin-1(2H)-one]",improved PKM2-modulatory activity compared with mitapivat,improved PKLR-modulatory activity compared with mitapivat,improved pyruvate kinase activity
"Cn1cc(S(=O)(=O)c2ccc3c(=O)n(Cc4cc5n(n4)CCO5)ncc3c2)cn1 [Example 5, 2-((2,3-dihydropyrazolo[5,1-b]oxazol-6-yl)methyl)-6-((1-methyl-1H-pyrazol-4-yl)sulfonyl)phthalazin-1(2H)-one]",improved PKM2-modulatory activity compared with mitapivat,improved PKLR-modulatory activity compared with mitapivat,improved pyruvate kinase activity
"Cc1[nH]nc(Cn2ncc3cc(S(=O)(=O)c4cc[nH]n4)ccc3c2=O)c1Cl [Example 6, 6-((1H-pyrazol-3-yl)sulfonyl)-2-((4-chloro-5-methyl-1H-pyrazol-3-yl)methyl)phthalazin-1(2H)-one]",improved PKM2-modulatory activity compared with mitapivat,–,improved pyruvate kinase activity
